Experimental data from article PMC5629025 (2017).
Residue numbers refer to the chain shown, from its start. These are yes or no findings as the source states them, for the method shown. Binding seen in cells or lysates may run through a third protein. A yes stands for co-enrichment or nearness to the bait. Other partners may have been found. Sequences can lack the tags named with a protein.

Chains of the proteins cited; added tags and fusions are not shown.
UniProt P10275: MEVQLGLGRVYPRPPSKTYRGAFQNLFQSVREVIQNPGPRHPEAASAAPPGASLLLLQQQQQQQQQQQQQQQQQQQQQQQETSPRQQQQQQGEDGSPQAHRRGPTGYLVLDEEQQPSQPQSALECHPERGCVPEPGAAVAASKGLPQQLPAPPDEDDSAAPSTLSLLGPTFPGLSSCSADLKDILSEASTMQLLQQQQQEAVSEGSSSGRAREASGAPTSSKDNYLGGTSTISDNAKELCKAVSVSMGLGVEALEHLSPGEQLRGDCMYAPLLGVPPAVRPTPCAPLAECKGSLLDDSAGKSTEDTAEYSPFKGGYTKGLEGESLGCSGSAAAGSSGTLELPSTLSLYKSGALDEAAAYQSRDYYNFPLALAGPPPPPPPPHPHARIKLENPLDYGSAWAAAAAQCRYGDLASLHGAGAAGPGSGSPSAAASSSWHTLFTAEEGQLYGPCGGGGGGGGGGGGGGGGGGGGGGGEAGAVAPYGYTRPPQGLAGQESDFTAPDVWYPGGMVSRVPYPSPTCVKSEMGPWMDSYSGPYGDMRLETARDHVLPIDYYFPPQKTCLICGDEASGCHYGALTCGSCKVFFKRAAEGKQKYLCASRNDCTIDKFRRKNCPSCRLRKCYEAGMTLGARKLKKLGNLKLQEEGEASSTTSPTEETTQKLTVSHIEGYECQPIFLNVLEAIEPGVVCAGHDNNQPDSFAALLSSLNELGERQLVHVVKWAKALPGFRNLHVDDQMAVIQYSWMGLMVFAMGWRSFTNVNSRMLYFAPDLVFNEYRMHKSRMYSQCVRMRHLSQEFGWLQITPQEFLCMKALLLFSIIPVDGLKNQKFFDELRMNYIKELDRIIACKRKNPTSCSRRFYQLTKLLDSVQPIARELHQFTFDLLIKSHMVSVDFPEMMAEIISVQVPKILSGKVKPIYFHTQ
UniProt P0DMV8: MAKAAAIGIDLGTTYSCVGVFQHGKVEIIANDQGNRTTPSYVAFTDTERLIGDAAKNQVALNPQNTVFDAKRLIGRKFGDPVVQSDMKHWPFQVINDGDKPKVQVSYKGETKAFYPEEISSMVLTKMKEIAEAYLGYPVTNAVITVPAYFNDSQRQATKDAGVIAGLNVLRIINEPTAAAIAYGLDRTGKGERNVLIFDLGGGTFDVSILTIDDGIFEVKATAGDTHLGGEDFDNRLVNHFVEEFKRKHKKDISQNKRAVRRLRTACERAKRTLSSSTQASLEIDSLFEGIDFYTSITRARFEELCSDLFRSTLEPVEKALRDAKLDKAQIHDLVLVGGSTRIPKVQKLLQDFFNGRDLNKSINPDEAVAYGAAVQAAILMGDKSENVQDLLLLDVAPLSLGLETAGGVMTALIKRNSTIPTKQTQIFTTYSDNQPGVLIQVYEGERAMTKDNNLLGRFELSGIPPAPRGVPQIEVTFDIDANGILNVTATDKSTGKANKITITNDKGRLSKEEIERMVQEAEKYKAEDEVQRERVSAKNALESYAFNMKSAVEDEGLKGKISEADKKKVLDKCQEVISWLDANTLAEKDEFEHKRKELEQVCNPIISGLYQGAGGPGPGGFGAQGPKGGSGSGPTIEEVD

How the values were obtained:
[1] = target: T1, FLAG-, HA-tagged wild-type Bag-1L (human) (UniProt Q99933); test: affinity purification with mass spectrometry; SILAC RIME (rapid IP-mass spectrometry) of LNCaP cells with FLAG-HA-tagged Bag-1L WT or CMut; anti-HA-tag or rabbit IgG on Dynabeads; forward and reverse labelling
T1 sequence: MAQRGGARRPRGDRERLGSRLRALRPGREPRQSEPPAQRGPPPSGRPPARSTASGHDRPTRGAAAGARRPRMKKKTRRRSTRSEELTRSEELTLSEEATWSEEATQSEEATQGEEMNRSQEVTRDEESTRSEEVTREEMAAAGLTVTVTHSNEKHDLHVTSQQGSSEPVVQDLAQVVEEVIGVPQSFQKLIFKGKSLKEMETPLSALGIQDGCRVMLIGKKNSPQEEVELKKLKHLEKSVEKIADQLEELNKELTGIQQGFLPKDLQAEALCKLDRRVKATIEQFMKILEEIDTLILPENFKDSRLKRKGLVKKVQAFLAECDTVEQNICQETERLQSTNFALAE

[2] = target: T2, FLAG-, HA-tagged BAG domain mutant Bag-1L (K231/232/279A) (human) (UniProt Q99933); test: as above
T2 sequence: T1 sequence with K231A, K232A, K279A

| binding [1] | binding [2] | Substance |
| --- | --- | --- |
| binds | – | androgen receptor, endogenous in LNCaP cells (from UniProt P10275 1-920) |
| binds | binds | Hsp70 (HSPA1), endogenous in LNCaP cells (from UniProt P0DMV8 1-641) |
